The experiment has as its target p75^NTR E147D-GFP (human) (UniProt P08138). The experiment in a line: flow cytometry on cells; cell-cell conjugates: cells expressing p75NTR-GFP point mutants against cells expressing PTPRF-mCherry. A general note: A flow cytometer gives signals particle by particle.

By UniProt entry, the sequences of proteins in these tests, tags left out. Where a name states a change or a piece, a line headed by the entry shows the natural chain unless it says otherwise. Residues count along the entry.
UniProt P08138: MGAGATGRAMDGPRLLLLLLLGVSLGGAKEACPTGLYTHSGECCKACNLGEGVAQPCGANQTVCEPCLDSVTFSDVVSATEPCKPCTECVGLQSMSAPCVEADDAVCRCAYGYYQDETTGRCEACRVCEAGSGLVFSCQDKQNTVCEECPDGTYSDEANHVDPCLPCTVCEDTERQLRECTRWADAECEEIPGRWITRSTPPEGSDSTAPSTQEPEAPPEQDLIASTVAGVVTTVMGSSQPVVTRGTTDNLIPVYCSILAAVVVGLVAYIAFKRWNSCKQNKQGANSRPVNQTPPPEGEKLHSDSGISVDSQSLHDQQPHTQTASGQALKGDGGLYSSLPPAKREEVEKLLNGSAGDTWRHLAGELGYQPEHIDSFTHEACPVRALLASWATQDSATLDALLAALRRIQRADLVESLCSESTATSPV
UniProt P10586, residues 30-1907: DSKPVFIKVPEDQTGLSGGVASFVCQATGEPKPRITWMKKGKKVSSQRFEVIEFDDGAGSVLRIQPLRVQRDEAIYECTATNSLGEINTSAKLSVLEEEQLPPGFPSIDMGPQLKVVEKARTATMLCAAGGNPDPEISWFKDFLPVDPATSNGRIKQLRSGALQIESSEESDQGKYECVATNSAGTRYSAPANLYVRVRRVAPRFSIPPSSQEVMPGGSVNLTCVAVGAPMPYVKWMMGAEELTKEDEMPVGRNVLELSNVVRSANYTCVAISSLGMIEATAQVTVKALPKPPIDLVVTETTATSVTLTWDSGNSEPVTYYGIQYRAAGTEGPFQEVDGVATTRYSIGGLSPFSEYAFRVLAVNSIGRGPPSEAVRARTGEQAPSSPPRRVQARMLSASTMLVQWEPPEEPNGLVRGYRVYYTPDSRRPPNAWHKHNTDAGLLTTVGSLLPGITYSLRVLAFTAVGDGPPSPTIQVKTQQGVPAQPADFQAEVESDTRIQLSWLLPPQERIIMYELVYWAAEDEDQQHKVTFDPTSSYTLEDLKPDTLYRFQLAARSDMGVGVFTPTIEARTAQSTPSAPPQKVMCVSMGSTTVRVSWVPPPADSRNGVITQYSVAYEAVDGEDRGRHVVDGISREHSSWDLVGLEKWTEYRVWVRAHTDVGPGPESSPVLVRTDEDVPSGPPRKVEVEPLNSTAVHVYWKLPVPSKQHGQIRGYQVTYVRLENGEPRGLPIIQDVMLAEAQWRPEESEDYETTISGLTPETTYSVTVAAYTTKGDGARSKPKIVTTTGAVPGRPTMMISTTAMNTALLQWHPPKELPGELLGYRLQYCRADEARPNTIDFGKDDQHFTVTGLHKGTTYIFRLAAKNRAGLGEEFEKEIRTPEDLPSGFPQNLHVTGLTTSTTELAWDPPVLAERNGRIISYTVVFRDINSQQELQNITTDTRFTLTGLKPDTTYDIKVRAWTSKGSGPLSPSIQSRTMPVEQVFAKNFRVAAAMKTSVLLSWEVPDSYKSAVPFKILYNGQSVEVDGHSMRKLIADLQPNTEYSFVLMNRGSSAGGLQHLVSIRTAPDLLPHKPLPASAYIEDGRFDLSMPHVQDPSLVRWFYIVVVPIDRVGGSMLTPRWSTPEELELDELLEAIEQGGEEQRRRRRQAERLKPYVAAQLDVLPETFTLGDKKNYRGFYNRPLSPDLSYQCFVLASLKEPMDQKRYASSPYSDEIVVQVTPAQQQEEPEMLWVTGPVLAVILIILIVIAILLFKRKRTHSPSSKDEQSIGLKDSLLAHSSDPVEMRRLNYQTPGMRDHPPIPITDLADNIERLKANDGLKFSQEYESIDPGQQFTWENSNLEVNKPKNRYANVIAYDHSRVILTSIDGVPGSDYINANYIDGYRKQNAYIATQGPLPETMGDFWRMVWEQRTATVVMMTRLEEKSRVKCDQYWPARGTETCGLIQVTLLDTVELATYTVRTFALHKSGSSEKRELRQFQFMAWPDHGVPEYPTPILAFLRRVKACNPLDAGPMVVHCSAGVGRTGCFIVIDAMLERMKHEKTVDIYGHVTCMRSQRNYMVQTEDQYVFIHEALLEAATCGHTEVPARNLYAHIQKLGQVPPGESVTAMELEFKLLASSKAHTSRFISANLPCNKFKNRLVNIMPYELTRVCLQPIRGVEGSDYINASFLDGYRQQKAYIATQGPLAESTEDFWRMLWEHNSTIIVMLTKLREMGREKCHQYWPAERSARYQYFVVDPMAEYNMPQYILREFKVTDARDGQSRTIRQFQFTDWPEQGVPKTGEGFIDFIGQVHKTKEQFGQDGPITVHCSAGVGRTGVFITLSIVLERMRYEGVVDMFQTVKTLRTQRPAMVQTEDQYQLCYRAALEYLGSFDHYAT

These are yes or no findings as the source states them, for the method shown. A result given as binding can be weak or reduced; the word gives no strength.

As for “protein tyrosine phosphatase receptor type F (PTPRF) (from UniProt P10586 30-1907)”, the binding result is “binds”.
